Values of other authors in patent US20160045463A1, “USE OF METALLOPROTEASE INHIBITORS IN THE TREATMENT OF POLYCYSTIC LIVER DISEASES” (UNIVERSIDAD DE SALAMANCA, priority 2012, published 2016).
At least one structure is not confirmed: it was looked up by name or label, or the drawing left a doubt.

Tests used:
[1] = cited from earlier work
polycystic livers = conditions: ADPKD patients subjected to kidney transplant with polycystic livers; cited from earlier work

O=C(C[C@H](CSc1ccccc1)C(=O)O)c1ccc(-c2ccc(Cl)cc2)cc1 [BAY-12-9566]
binding fraction to plasma proteins [1]: > 99.99%

CO[C@H]1C[C@@H]2CC[C@@H](C)[C@@](O)(O2)C(=O)C(=O)N2CCCC[C@H]2C(=O)O[C@H]([C@H](C)C[C@@H]2CC[C@@H](O)[C@H](OC)C2)CC(=O)[C@H](C)/C=C(\C)[C@@H](O)[C@@H](OC)C(=O)[C@H](C)C[C@H](C)/C=C/C=C/C=C/1C [sirolimus]
volume of the liver (polycystic livers): reduced the volume of the liver
